Source: the supplement of paper PMC8728848
The list shows a part of the results.

Assays:
Assay in all cases: glycan array binding signal (z-score within array); higher = stronger binding
Conditions in all cases: glycan notation: IUPAC condensed, linker removed
[1] = biological target: Fuc(a1-2)[GalNAc(b1-3)]Gal
Method in brief: (§1)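 From the Consortium for Functional Glycomics database, 3228 arrays were curated, keeping only those whose protein sequence was available. Binding is given as a within-array Z-score averaged across arrays sharing a protein sequence and across linkers. Negative Z-scores can be read as non-binding.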

Fuc(a1-3)GlcNAc = biological target: Fuc(a1-3)GlcNAc
Method in brief: as §1

[2] = biological target: Fuc(a1-3)[Gal(b1-4)]Glc6S
Method in brief: as §1

[3] = biological target: Fuc(a1-3)[Gal(b1-4)]GlcNAc
Method in brief: as §1

[4] = biological target: Fuc(a1-3)[Gal(b1-4)]GlcNAc(b1-2)Man
Method in brief: as §1

[5] = biological target: Fuc(a1-3)[Gal(b1-4)]GlcNAc(b1-2)Man(a1-3)[Fuc(a1-3)[Gal(b1-4)]GlcNAc(b1-2)Man(a1-6)]Man(b1-4)GlcNAc(b1-4)GlcNAc
Method in brief: as §1

[6] = biological target: Fuc(a1-3)[Gal(b1-4)]GlcNAc(b1-2)Man(a1-3)[Fuc(a1-3)[Gal(b1-4)]GlcNAc(b1-2)Man(a1-6)]Man(b1-4)GlcNAc(b1-4)[Fuc(a1-6)]GlcNAc
Method in brief: as §1

[7] = biological target: Fuc(a1-3)[Gal(b1-4)]GlcNAc(b1-3)Gal(b1-3)[Fuc(a1-4)]GlcNAc
Method in brief: as §1

[8] = biological target: Fuc(a1-3)[Gal(b1-4)]GlcNAc(b1-3)Gal(b1-4)[Fuc(a1-3)]GlcNAc
Method in brief: as §1

[9] = biological target: Fuc(a1-3)[Gal(b1-4)]GlcNAc(b1-3)Gal(b1-4)[Fuc(a1-3)]GlcNAc(b1-3)Gal(b1-4)[Fuc(a1-3)]GlcNAc
Method in brief: as §1

[10] = biological target: Fuc(a1-3)[Gal(b1-4)]GlcNAc(b1-3)GalNAc
Method in brief: as §1

[11] = biological target: Fuc(a1-3)[Gal(b1-4)]GlcNAc(b1-6)GalNAc
Method in brief: as §1

[12] = biological target: Fuc(a1-3)[Gal(b1-4)]GlcNAc(b1-6)[Gal(b1-3)GlcNAc(b1-3)]Gal(b1-4)Glc
Method in brief: as §1

[13] = biological target: Fuc(a1-3)[Gal(b1-4)]GlcNAc6S
Method in brief: as §1

[14] = biological target: Fuc(a1-3)[Gal3S(b1-4)]Glc
Method in brief: as §1

[15] = biological target: Fuc(a1-3)[Gal3S(b1-4)]GlcNAc
Method in brief: as §1

[16] = biological target: Fuc(a1-3)[Gal3S(b1-4)]GlcNAc6S
Method in brief: as §1

[17] = biological target: Fuc(a1-3)[GalNAc(b1-4)]GlcNAc
Method in brief: as §1

[18] = biological target: Fuc(a1-3)[GalNAc(b1-4)]GlcNAc6S
Method in brief: as §1

Fuc(a1-4)GlcNAc = biological target: Fuc(a1-4)GlcNAc
Method in brief: as §1

Fuc(b1-3)GlcNAc = biological target: Fuc(b1-3)GlcNAc
Method in brief: as §1

Gal(a1-2)Gal = biological target: Gal(a1-2)Gal
Method in brief: as §1

Gal(a1-3)Gal = biological target: Gal(a1-3)Gal
Method in brief: as §1

Gal(a1-3)Gal(b1-3)GlcNAc = biological target: Gal(a1-3)Gal(b1-3)GlcNAc
Method in brief: as §1

[19] = biological target: Gal(a1-3)Gal(b1-3)GlcNAc(b1-2)Man
Method in brief: as §1

[20] = biological target: Gal(a1-3)Gal(b1-3)GlcNAc(b1-2)Man(a1-3)[Gal(a1-3)Gal(b1-3)GlcNAc(b1-2)Man(a1-6)]Man(b1-4)GlcNAc(b1-4)GlcNAc
Method in brief: as §1

[21] = biological target: Gal(a1-3)Gal(b1-3)GlcNAc(b1-3)GalNAc
Method in brief: as §1

[22] = biological target: Gal(a1-3)Gal(b1-3)GlcNAc(b1-6)GalNAc
Method in brief: as §1

[23] = biological target: Gal(a1-3)Gal(b1-3)[Fuc(a1-4)]GlcNAc(b1-2)Man(a1-3)[Gal(a1-3)Gal(b1-3)[Fuc(a1-4)]GlcNAc(b1-2)Man(a1-6)]Man(b1-4)GlcNAc(b1-4)GlcNAc
Method in brief: as §1

Gal(a1-3)Gal(b1-4)Glc = biological target: Gal(a1-3)Gal(b1-4)Glc
Method in brief: as §1

B1: BT4246 (Bacteroides thetaiotaomicron), Q89ZX5 (protein)
chain: MGSSHHHHHHENLYFQGHMASDYLDVVPPEQPNIDDAMSSPTRALGFLYSCYGGVSTDLPSAYLGEINSTTDEYVLPYSWNTDGYWGAYAFNTASSTNQDWLWGTTYQYIGQCYLFLQKLENAGSDIASDAEKEQWRAECQFLVAYYHFATLRRYGPIPITDSYIPMDTPTSEYNGRFHFDYCVDWIANQLDEAAKVLPANRTVTNEWGRATSTIAKAVKARLLLYAASPLWNGSFPYPNWQNENFETPGYGKALVSNTYDKSKWERALAACQEALTLATTSGDRELYDDDEYYSRQSLNLPFVPGVADVEDNKEFLKNVMKMRYAVSTRESEGNKEIIWGLSNQFDFYSRYPLRILKKSDGTWHAGYSGVSPTLYTFEHFYTANGKLPEKDLDFTPSSEWFESAGISSREDIIKLNVGREPRFYAWMAFDGGDYGTKFAAGSPLKLEMRNSEMHGYNPSLFNRDHSVTGFLTQKFVDPVTEFYTAGGSTSGTSAPTILFRLAELYLNVAECHAALGNTQEAIDALNPVRERAGIPKLTLADITNNMTIKDWVHNERFVELWNEGHRFFDVRRWAEGAKYFGANKREGLNAEVQSPTFEEFNKRTTVDAPYVWENRMYLNPVFYNEVYKNPQMVQAPGY
[1]
  glycan array binding signal (z-score): -0.491
Fuc(a1-3)GlcNAc
  glycan array binding signal (z-score): -1.71
[2]
  glycan array binding signal (z-score): 1.48
[3]
  glycan array binding signal (z-score): 1.44
[4]
  glycan array binding signal (z-score): 0.571
[5]
  glycan array binding signal (z-score): -0.536
[6]
  glycan array binding signal (z-score): -0.062
[7]
  glycan array binding signal (z-score): -1.5
[8]
  glycan array binding signal (z-score): 0.61
[9]
  glycan array binding signal (z-score): -0.484
[10]
  glycan array binding signal (z-score): -0.422
[11]
  glycan array binding signal (z-score): -0.061
[12]
  glycan array binding signal (z-score): -0.254
[13]
  glycan array binding signal (z-score): -1.45
[14]
  glycan array binding signal (z-score): 1.27
[15]
  glycan array binding signal (z-score): -0.584
[16]
  glycan array binding signal (z-score): -0.7
[17]
  glycan array binding signal (z-score): 1.29
[18]
  glycan array binding signal (z-score): -0.444
Fuc(a1-4)GlcNAc
  glycan array binding signal (z-score): -0.637
Fuc(b1-3)GlcNAc
  glycan array binding signal (z-score): -0.792
Gal(a1-2)Gal
  glycan array binding signal (z-score): -0.225
Gal(a1-3)Gal
  glycan array binding signal (z-score): -1.17
Gal(a1-3)Gal(b1-3)GlcNAc
  glycan array binding signal (z-score): 1.69
[19]
  glycan array binding signal (z-score): -0.436
[20]
  glycan array binding signal (z-score): 1.06
[21]
  glycan array binding signal (z-score): -0.409
[22]
  glycan array binding signal (z-score): 1.53
[23]
  glycan array binding signal (z-score): 0.85
Gal(a1-3)Gal(b1-4)Glc
  glycan array binding signal (z-score): 0.389
